Data as given in publication doi:10.1101/2020.05.08.084814.
These are yes or no findings as the source states them, for the method shown. In cells and extracts the contact can be indirect. These calls come from enrichment with a bait or labelling near it, and not all partners need be listed.

T1: Stau1 (Staufen1) (Xenopus laevis (endogenous in oocytes)) (UniProt Q6GM35)
T1 sequence: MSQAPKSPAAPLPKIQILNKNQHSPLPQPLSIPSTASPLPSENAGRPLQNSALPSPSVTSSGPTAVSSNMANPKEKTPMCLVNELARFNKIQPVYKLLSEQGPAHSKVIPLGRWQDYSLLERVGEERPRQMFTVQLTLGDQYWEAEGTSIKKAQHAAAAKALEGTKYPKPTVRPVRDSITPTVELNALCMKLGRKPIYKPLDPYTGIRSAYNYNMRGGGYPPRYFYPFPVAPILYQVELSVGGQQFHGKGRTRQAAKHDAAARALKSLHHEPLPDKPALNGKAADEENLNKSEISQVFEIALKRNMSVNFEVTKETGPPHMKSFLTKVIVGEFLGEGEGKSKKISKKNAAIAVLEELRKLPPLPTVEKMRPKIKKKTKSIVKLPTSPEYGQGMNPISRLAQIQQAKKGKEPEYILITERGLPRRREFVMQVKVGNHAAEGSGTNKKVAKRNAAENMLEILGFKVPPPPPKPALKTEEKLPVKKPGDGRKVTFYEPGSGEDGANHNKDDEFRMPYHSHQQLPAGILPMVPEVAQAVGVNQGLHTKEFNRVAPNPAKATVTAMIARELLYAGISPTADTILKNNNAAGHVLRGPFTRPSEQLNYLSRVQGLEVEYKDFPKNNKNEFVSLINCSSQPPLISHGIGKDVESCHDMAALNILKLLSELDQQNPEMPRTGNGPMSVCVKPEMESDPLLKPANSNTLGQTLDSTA

T2: hnRNPAB (40LoVE) (Xenopus laevis (endogenous in oocytes))
T2 sequence: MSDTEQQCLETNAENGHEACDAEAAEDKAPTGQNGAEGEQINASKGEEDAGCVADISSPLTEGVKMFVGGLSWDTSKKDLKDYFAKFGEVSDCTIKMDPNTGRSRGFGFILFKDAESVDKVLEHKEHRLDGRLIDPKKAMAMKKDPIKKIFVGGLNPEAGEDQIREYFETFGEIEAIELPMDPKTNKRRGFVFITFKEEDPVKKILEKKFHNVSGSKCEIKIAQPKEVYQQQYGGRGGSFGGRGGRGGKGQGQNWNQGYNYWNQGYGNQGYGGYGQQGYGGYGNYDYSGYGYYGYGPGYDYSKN

B1: Ddx1 (protein, UniProt A2VD92 1-740)
chain: MAAFSEMGVMPEIAQAVEEMDWLLPTDIQAESIPLILGGGDVLMAAETGSGKTGAFSIPVIQIVYETLKDQQEGKKGKASVKTGSTVLNKWQMNPYDRGSAFAIGSDGLCCQSREIKEWHGCRSTRGVNKGKYYYEVSCHDQGLCRVGWSTLSASLDLGTDKFGFGFGGTGKKSHNKQFDNYGEEFTMHDTIGCYLDIDNSIVKFSKNGKDLGLAFQIPSHMKNQAFFTSCVLKNAELKFNFGEEDFKFPPKDGFVALSKAPDGHVVKSQNTGSAQVSQTKSLPNAPKALIIEPSRELAEQTLNNVKQFKKYVDNPKLRELLIIGGVAAKEQLTILENGVDIVVGTPGRIDDLISTGKLSLSQVRFLVLDEADGLLSQGYSDFINRIYGQIPQITSDGKRLQVIVCSATLHSFDVKKLSEKIMHFPTWVDLKGEDSVPETVHHVVVPVNPKKDKQWEKLAKNHIRTDGVHDKDNTRPGGNSAEVWSEAIKVLKGEYIVRAIKEHKMDQAIIFCRTKLDCDNMEQYFIQQGGGPDKKGHQFSCVCLHSDRKPPERKHNLERFKKCEVRFLICTDVAARGIDIRGVPYVINVTLPDEKQNYVHRIGRVGRAERMGLAISLVASEKEKVWYHVCSSRGKGCYNTRLKEDGGCTIWYNEMQLLSEIEEHLTCTISQVEPDIKVPLDDFDGKVVYGQRRATGGGLYKGHVDILAPTVQELASLEKEAQTSFLHLGYLSNQLFRSF
B2: Ddx5 (protein, UniProt Q63ZR1 1-608)
chain: MPGFNDRDRGRDRGFGGGPRFGGNRGGTSGKYGNPGERLMKKKWNLDELPKFEKNFYQEHPDVVRRTPQECDQYRRSKEITVRGINCPKPILNFNEASFPANVMEAIKRQNFTEPTPIQGQGWPVALSGLDMVGVAMTGSGKTLSYLLPGIVHINHQPFLQRGDGPILLVLAPTRELAQQVQQVAAEYGRACRLRSTCIYGGAPKGPQIRDLERGVEICIATPGRLIDFLEAGKTNLNRCTYLVLDEADRMLDMGFEPQIRKIVDQIRPDRQTLMWSATWPKEVRQLAEDFLRDYVHINIGALELSANHNILQIVDVCNDGEKDDKLVRLMEEIMSEKENKTIVFVETKRRCDDLTRRLRRDGWPAMGIHGDKSQQERDWVLNEFKHGKSPILIATDVASRGLDVEDVKFVINYDYPNSSEDYIHRIGRTARSSKTGTAYTFFTPGNIKQVNDLISVLREANQAINPKLLQLVEDRGRFRGRGGMNDRRDRFSSGKRGGWDRENYDRGFGGKRDFGNKSQNGFGNKSQNGFGAQNYNGNFNSYGSNVQSGFRAGAQNGTYQNGYSTQQTGYSAPPMQNGMTQQAYTYPTATATAPAVIGYPMPTSYPQ
B3: Ilf3 (protein, UniProt Q91550 1-897)
chain: MRPMRIFLNDDRHVMAKHSVVYPTQEELEAVQNMVSHTERALKAVSDWIDQQEKDCSGEQEQPMAEETETTEEGKDSEMKTGENPTRTLRGVMRVGLVAKGLLLKGDLDLELVLLCRDKPTISLLKRVADNLVLQFETVSEDKYEVIQNIREALIVVKSTKEPPLTLNIRLTSPLVREEMEKLSAGETLTVSDPPDVLDRHKCLAALASLRHAKWFQARANGLKSCVIVIRVLRDLCTRVPTWEPLRGWPLELLCEKAIGTANRPMGAGEALRRVLECLSSGILMPDGSGLYDPCEKDASDALEHLERQQREDITQSAQHALRLAAFGQLHKVLGMDPLPSKMPKKTKVETPVIDYTVQIPPSTTYAMPPLKRPIEEDGDDKSPSKKKKKIQKKDEKSEPPQVMNALMRLNQLKPGLQYKLISQTGPVHAPVFTMSVEVDDKTFEASGPSKKTAKLHVAVKVLQDMGLPTGMEEKEEGTDESEQKPVVQTPAQPDDSAEVDSAALDQAESAKQQGPILTKHGKNPVMELNEKRRGLKYELISETGGSHDKRFVMEVEVDGVKFQGSGSNKKVAKAYAALSALEKLFPDYTMYTEAPKKKRPPMMPRGGPKFAGKHNQGFGMMYSEVPPPQAMRGRGRGGMNRGRGRGRGGFGGGYMNSGGYGGGYGGNYNYQTSATAGYSQFYSNGGASGNAGGGGAGTGGYSSYYQGDSYSAPTPPKPFVNKKPPPPQQQQQQQPPPQHASNPPKPSYNQGYQGHQGGQQQQQQQQQQQTYNQNQYSNYGPPQKQKGGYNQGAQGAGSGGSYNYSNSYTGGTAPLGTAVERVQEGEAAALTQRQALVTTQAHTPAMVEPAVLRRTKVTRSLITIKVPPDRTTVALQIITSSLREELGVTAGIQNTT
B4: Stau1 (Staufen1) (protein, UniProt Q6GM35 1-708)
chain: MSQAPKSPAAPLPKIQILNKNQHSPLPQPLSIPSTASPLPSENAGRPLQNSALPSPSVTSSGPTAVSSNMANPKEKTPMCLVNELARFNKIQPVYKLLSEQGPAHSKVIPLGRWQDYSLLERVGEERPRQMFTVQLTLGDQYWEAEGTSIKKAQHAAAAKALEGTKYPKPTVRPVRDSITPTVELNALCMKLGRKPIYKPLDPYTGIRSAYNYNMRGGGYPPRYFYPFPVAPILYQVELSVGGQQFHGKGRTRQAAKHDAAARALKSLHHEPLPDKPALNGKAADEENLNKSEISQVFEIALKRNMSVNFEVTKETGPPHMKSFLTKVIVGEFLGEGEGKSKKISKKNAAIAVLEELRKLPPLPTVEKMRPKIKKKTKSIVKLPTSPEYGQGMNPISRLAQIQQAKKGKEPEYILITERGLPRRREFVMQVKVGNHAAEGSGTNKKVAKRNAAENMLEILGFKVPPPPPKPALKTEEKLPVKKPGDGRKVTFYEPGSGEDGANHNKDDEFRMPYHSHQQLPAGILPMVPEVAQAVGVNQGLHTKEFNRVAPNPAKATVTAMIARELLYAGISPTADTILKNNNAAGHVLRGPFTRPSEQLNYLSRVQGLEVEYKDFPKNNKNEFVSLINCSSQPPLISHGIGKDVESCHDMAALNILKLLSELDQQNPEMPRTGNGPMSVCVKPEMESDPLLKPANSNTLGQTLDSTA
B5: hnRNPAB (40LoVE) (protein, UniProt A0A7M4CIF6 1-304)
chain: MSDTEQQCLETNAENGHEACDAEAAEDKAPTGQNGAEGEQINASKGEEDAGCVADISSPLTEGVKMFVGGLSWDTSKKDLKDYFAKFGEVSDCTIKMDPNTGRSRGFGFILFKDAESVDKVLEHKEHRLDGRLIDPKKAMAMKKDPIKKIFVGGLNPEAGEDQIREYFETFGEIEAIELPMDPKTNKRRGFVFITFKEEDPVKKILEKKFHNVSGSKCEIKIAQPKEVYQQQYGGRGGSFGGRGGRGGKGQGQNWNQGYNYWNQGYGNQGYGGYGQQGYGGYGNYDYSGYGYYGYGPGYDYSKN

What was measured:
[1] = target: T1, Stau1 (Staufen1) (Xenopus laevis (endogenous in oocytes)); experiment: affinity purification with mass spectrometry
[2] = target: T2, hnRNPAB (40LoVE) (Xenopus laevis (endogenous in oocytes)); experiment: affinity purification with mass spectrometry

binding [1] | binding [2] | Binder
binds | binds | B1
binds | binds | B2
binds | binds | B3
 | binds | B4
binds |  | B5
